Test results taken from patent US20150276714A1, “METHOD OF IDENTIFYING OR EVALUATING BENEFICIAL ACTIVES AND COMPOSITIONS CONTAINING THE SAME” (The Procter & Gamble Company, priority 2012, published 2015).
Values joined by “and” are separate entries in the source; they are usually repeats but may differ in a detail not shown here. Identical values can stand only once. Further values from the same series stand in other lists.

System: human dermal fibroblasts (BJ cell line)
Assay: Extracellular acidification rate (glycolysis), XF Extracellular Flux Analyzer
Format: cell-based
Settings: plate 2, 1.0 mM niacinamide alone
Description: This method enables the non-lethal, simultaneous detection of metabolic indicators associated with the oxidative phosphorylation and glycolysis metabolic pathways in a controlled environment. The method also enables the collection of kinetic data. When assessing the metabolic response to a stressor or test agent, it is important to assess both metabolic pathways simultaneously to understand how the two metabolic pathways interact with the stressor or test agent and/or to one another. Additionally, it is important to monitor the metabolic pathways in real time (i.e., repeating periodic measurements) to observe trends and/or transient responses that may be missed when using methods that provide only static data. Thus, destructive tests are not suitable for use herein since they typically only allow for a single measurement. With regard to the fibroblasts discussed above in FIGS. 5A, 5B, 5C, 5D, 5E, 6, 7A, 7B, 7C, 7D, 7E and 8, frozen human dermal fibroblasts were obtained from the BJ cell line commercially available from ATCC, Bethesda, Md. The fibroblasts were grown to 70-80% confluence in a culture medium of Eagle's Minimum Essential Medium (“EMEM”) supplemented with 10% fetal bovine serum (“FBS”) and gentamicin/amphotericin B ×500 solution (EMEM and FBS are available from ATCC, and gentamicin/amphotericin B ×500 solution is available from Invitrogen). The fibroblasts were plated at 1×10^5 cells per well in Gelatin-coated plates 24 hours prior to testing. Each well included 100 μL of the fibroblast medium described above. A test medium was made from Dulbecco's Modified Eagle Medium (available from Seahorse Bioscience), 25 mM glucose and 1 mM pyruvate. The test medium was warmed to 37° C. and the pH adjusted to 7.4. The cells were grown and plated at 37° C. and 5% CO2 air. The fibroblast medium in the wells was replaced by the test medium 1 hour prior to taking measurements. Oxygen consumption rate and extracellular acidification rate may be detected using an XF Extracellular Flux Analyzer or equivalent. The device should be capable of non-lethally and simultaneously detecting metabolic indicators of the oxphos and glycolysis pathways in a controlled environment, as well as providing kinetic data. The cells may be provided in a multi-well plate suitable for use with the instrument (e.g., 24-well plate or 96-well plate) and washed prior to testing. The cells may be washed by any suitable means known in the art (e.g., using a Seahorse Biosciences XF prep station). When washing the cells, it may be desirable to remove the medium from the wells and wash the cells three times with a suitable amount of test medium (e.g., 180 μL in a 96-well plate or 600 μL in a 24-well plate). After washing the cells, a suitable amount of test medium is placed in each well, and the cells are equilibrated at 37° C. in a CO2-free incubator for 1-1.5 hours prior to placing the plate in the instrument for testing. Following the equilibration period, load the plate containing the cells into the instrument and equilibrate according to manufacturer's instructions. The entire test is conducted at 37° C. In some embodiments, it may be desirable to set the instrument to provide a three minute mix cycle, a two minute wait cycle, and a 3 minute measurement cycle for keratinocytes and a two minute mix cycle, two minute wait cycle and 3 minute measurement cycle for fibroblasts. The cycles should be repeated for at least 88 minutes. It is to be appreciated that the cycles and times may be modified according to cell type and experiment design, as desired. The following example illustrates how the method herein can be used to identify skin care actives. […] The test agent is niacinamide (also known as vitamin B3), which is commercially available from Sigma. The test agent was prepared at 10× the final working concentration in the fibroblast test medium described above to provide a test agent solution. […]

**Q.** `NC(=O)c1cccnc1` [niacinamide] was tested. Which ECAR (measurement 4 (added after measurement 3)) did it give?
**A.** Its ECAR is 28 mpH/min and 44 mpH/min and 34 mpH/min and 41 mpH/min and 25 mpH/min.

**Q.** What about the ECAR (measurement 5) of the same compound?
**A.** The ECAR was 38 mpH/min and 52 mpH/min and 44 mpH/min and 49 mpH/min and 39 mpH/min.

**Q.** What about the ECAR (measurement 6) of the same compound?
**A.** Its ECAR is 38 mpH/min and 52 mpH/min and 44 mpH/min and 50 mpH/min and 39 mpH/min.

**Q.** And the ECAR (measurement 7)?
**A.** Its ECAR is 38 mpH/min and 52 mpH/min and 43 mpH/min and 49 mpH/min.

**Q.** And the ECAR (measurement 8)?
**A.** Its ECAR is 37 mpH/min and 52 mpH/min and 42 mpH/min and 49 mpH/min and 38 mpH/min.

**Q.** What about the ECAR (measurement 9) of the same compound?
**A.** Its ECAR is 37 mpH/min and 52 mpH/min and 42 mpH/min and 48 mpH/min.

**Q.** What about the ECAR (measurement 10) of the same compound?
**A.** Its ECAR is 37 mpH/min and 52 mpH/min and 41 mpH/min and 48 mpH/min and 36 mpH/min.

**Q.** What about the ECAR (measurement 11) of the same compound?
**A.** The ECAR was 36 mpH/min and 51 mpH/min and 40 mpH/min and 48 mpH/min and 35 mpH/min.
